No constants are given. Whether binding was seen depends on the method and setting. Some results given as binding are weak or reduced against the parent protein; the word gives no strength.
Target: T1, human C1s (active form) (human) (UniProt P09871)
T1 sequence 1: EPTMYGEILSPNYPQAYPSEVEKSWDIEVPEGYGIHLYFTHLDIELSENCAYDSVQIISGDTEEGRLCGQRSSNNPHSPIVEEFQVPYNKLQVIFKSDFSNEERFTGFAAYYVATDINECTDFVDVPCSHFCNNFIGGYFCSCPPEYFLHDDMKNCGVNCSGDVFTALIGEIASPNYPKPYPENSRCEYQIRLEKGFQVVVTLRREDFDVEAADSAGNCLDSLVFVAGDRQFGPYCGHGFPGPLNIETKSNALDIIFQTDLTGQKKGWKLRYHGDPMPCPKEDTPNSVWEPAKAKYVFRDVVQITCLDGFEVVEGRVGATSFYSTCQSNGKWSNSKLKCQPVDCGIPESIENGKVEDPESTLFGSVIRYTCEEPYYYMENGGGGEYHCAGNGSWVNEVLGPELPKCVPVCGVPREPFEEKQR
T1 sequence 2: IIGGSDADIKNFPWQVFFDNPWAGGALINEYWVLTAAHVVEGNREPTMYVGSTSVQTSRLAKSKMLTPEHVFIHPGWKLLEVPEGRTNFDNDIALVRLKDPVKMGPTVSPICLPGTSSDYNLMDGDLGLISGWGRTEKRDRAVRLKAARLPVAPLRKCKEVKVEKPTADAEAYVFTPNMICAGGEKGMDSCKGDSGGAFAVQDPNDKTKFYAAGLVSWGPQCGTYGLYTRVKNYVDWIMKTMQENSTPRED
Assay: SPR, IgG captured on anti-Fc surface, C1s or proC1s_RQ as analyte

binding: binds
B1: MAB3 (antibody, V domains shown)
VH: EVQLVESGGGVVRPGGSLRLSCAASGFTFDDYGMSWVRQAPGKGLEWVSGINWEGGSTGYADSVKGRFTISRDNAKNSLYLQMNSLRAEDTALYYCARDEQLGGNYYYYYYMDVWGKGTTVTVSS
VL: DIQMTQSPSSLSASVGDRVTITCRASQGIRNDLGWYQQKPGKAPKRLIYTASNLQSGVPSRFSGSGSGTEFTLTISSLQPEDFATYYCLQYNSYPLTFGGGTKVEIK

Source: US20260022195A1
